# Test results taken from the supplement of paper PMC8728848.
# The other results are listed elsewhere or left out.
# Columns and labels:
# Test in all cases: glycan array binding signal (z-score within array); higher = stronger binding
# Settings in all cases: glycan notation: IUPAC condensed, linker removed
# [1] = target: Gal(b1-3)GalNAc(b1-3)Gal(a1-4)Gal(b1-4)Glc
# Outline: (§1)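 The Consortium for Functional Glycomics database supplied 3228 glycan arrays, of which those lacking an available protein sequence were dropped. The binding signal, a within-array Z-score, was averaged across arrays of the same protein sequence and across linkers. Negative scores can be read as non-binding.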
# [2] = target: Gal(b1-3)GalNAc(b1-4)Gal(b1-4)Glc
# Outline: as §1
# [3] = target: Gal(b1-3)GalNAc(b1-4)[Neu5Ac(a2-3)]Gal(b1-4)Glc
# Outline: as §1
# [4] = target: Gal(b1-3)GlcNAc
# Outline: as §1
# [5] = target: Gal(b1-3)GlcNAc(a1-3)Gal(b1-4)GlcNAc
# Outline: as §1
# [6] = target: Gal(b1-3)GlcNAc(a1-6)Gal(b1-4)GlcNAc
# Outline: as §1
# [7] = target: Gal(b1-3)GlcNAc(b1-2)Man
# Outline: as §1
# [8] = target: Gal(b1-3)GlcNAc(b1-2)Man(a1-3)[Gal(b1-3)GlcNAc(b1-2)Man(a1-6)]Man(b1-4)GlcNAc(b1-4)GlcNAc
# Outline: as §1
# [9] = target: Gal(b1-3)GlcNAc(b1-2)Man(a1-3)[Gal(b1-3)GlcNAc(b1-2)Man(a1-6)]Man(b1-4)GlcNAc(b1-4)[Fuc(a1-6)]GlcNAc
# Outline: as §1
# [10] = target: Gal(b1-3)GlcNAc(b1-2)Man(a1-3)[GlcNAc(b1-4)][Gal(b1-3)GlcNAc(b1-2)Man(a1-6)]Man(b1-4)GlcNAc(b1-4)GlcNAc
# Outline: as §1
# [11] = target: Gal(b1-3)GlcNAc(b1-2)[Gal(b1-3)GlcNAc(b1-6)]Man(a1-6)[Gal(b1-3)GlcNAc(b1-2)Man(a1-3)]Man(b1-4)GlcNAc(b1-4)GlcNAc
# Outline: as §1
# [12] = target: Gal(b1-3)GlcNAc(b1-3)Gal(b1-3)GlcNAc
# Outline: as §1
# [13] = target: Gal(b1-3)GlcNAc(b1-3)Gal(b1-4)Glc
# Outline: as §1
# [14] = target: Gal(b1-3)GlcNAc(b1-3)Gal(b1-4)GlcNAc
# Outline: as §1
# [15] = target: Gal(b1-3)GlcNAc(b1-3)Gal(b1-4)GlcNAc(b1-2)Man(a1-3)[Gal(b1-3)GlcNAc(b1-3)Gal(b1-4)GlcNAc(b1-2)Man(a1-6)]Man(b1-4)GlcNAc(b1-4)GlcNAc
# Outline: as §1
# [16] = target: Gal(b1-3)GlcNAc(b1-3)Gal(b1-4)GlcNAc(b1-2)[Gal(b1-3)GlcNAc(b1-3)Gal(b1-4)GlcNAc(b1-6)]Man(a1-6)[Gal(b1-3)GlcNAc(b1-3)Gal(b1-4)GlcNAc(b1-2)Man(a1-3)]Man(b1-4)GlcNAc(b1-4)[Fuc(a1-6)]GlcNAc
# Outline: as §1
# [17] = target: Gal(b1-3)GlcNAc(b1-3)Gal(b1-4)GlcNAc(b1-3)Gal(b1-4)GlcNAc(b1-2)[Gal(b1-3)GlcNAc(b1-3)Gal(b1-4)GlcNAc(b1-3)Gal(b1-4)GlcNAc(b1-6)]Man(a1-6)[Gal(b1-3)GlcNAc(b1-3)Gal(b1-4)GlcNAc(b1-3)Gal(b1-4)GlcNAc(b1-2)Man(a1-3)]Man(b1-4)GlcNAc(b1-4)[Fuc(a1-6)]GlcNAc
# Outline: as §1
# [18] = target: Gal(b1-3)GlcNAc(b1-3)Gal(b1-4)GlcNAc(b1-6)[Gal(b1-3)GlcNAc(b1-3)]Gal(b1-4)Glc
# Outline: as §1
# [19] = target: Gal(b1-3)GlcNAc(b1-3)Gal(b1-4)[Fuc(a1-3)]GlcNAc
# Outline: as §1
# [20] = target: Gal(b1-3)GlcNAc(b1-3)Gal(b1-4)[Fuc(a1-3)]GlcNAc(b1-6)[Gal(b1-3)GlcNAc(b1-3)]Gal(b1-4)Glc
# Outline: as §1
# [21] = target: Gal(b1-3)GlcNAc(b1-3)GalNAc
# Outline: as §1
# [22] = target: Gal(b1-3)GlcNAc(b1-6)Gal(b1-4)GlcNAc
# Outline: as §1
# [23] = target: Gal(b1-3)GlcNAc(b1-6)GalNAc
# Outline: as §1
# [24] = target: Gal(b1-3)GlcNAc(b1-6)[Gal(b1-3)]GalNAc
# Outline: as §1
# [25] = target: Gal(b1-3)GlcNAc6S
# Outline: as §1
# [26] = target: Gal(b1-3)[Fuc(a1-4)]GlcNAc
# Outline: as §1
# [27] = target: Gal(b1-3)[Fuc(a1-4)]GlcNAc(b1-2)Man
# Outline: as §1
# [28] = target: Gal(b1-3)[Fuc(a1-4)]GlcNAc(b1-2)Man(a1-3)[Gal(b1-3)[Fuc(a1-4)]GlcNAc(b1-2)Man(a1-6)]Man(b1-4)GlcNAc(b1-4)[Fuc(a1-6)]GlcNAc
# Outline: as §1
# [29] = target: Gal(b1-3)[Fuc(a1-4)]GlcNAc(b1-3)Gal(b1-3)[Fuc(a1-4)]GlcNAc
# Outline: as §1
# [30] = target: Gal(b1-3)[Fuc(a1-4)]GlcNAc(b1-3)Gal(b1-4)[Fuc(a1-3)]GlcNAc
# Outline: as §1
# [31] = target: Gal(b1-3)[Fuc(a1-4)]GlcNAc(b1-6)GalNAc
# Outline: as §1
# [32] = target: Gal(b1-3)[GlcNAc(b1-6)]GalNAc
# Outline: as §1
# [33] = target: Gal(b1-3)[Neu5Ac(a2-6)]GalNAc
# Outline: as §1
# [34] = target: Gal(b1-3)[Neu5Ac(a2-6)]GlcNAc(b1-4)Gal(b1-4)Glc
# Outline: as §1
# [35] = target: Gal(b1-3)[Neu5Ac(b2-6)]GalNAc
# Outline: as §1
# [36] = target: Gal(b1-4)Gal
# Outline: as §1
# [37] = target: Gal(b1-4)GalNAc(a1-3)[Fuc(a1-2)]Gal(b1-4)GlcNAc
# Outline: as §1
# [38] = target: Gal(b1-4)GalNAc(b1-3)[Fuc(a1-2)]Gal(b1-4)GlcNAc
# Outline: as §1
binder,measurement,setting,value
PX14343E-bfa-545-24-545 (Bacteroides fragilis) (protein) LDRYPQEELSDGSFWKTPDDANKVVSDLYGYLSTWDQDNDINSDNATMGIKWAAGNVSKGIYDPADQGWSGDYANVRQCNLILSKIDEIPDYPEADKTKALGQVYFFRAYIYFNLIRSFGDVPYIDKPLDLKDMEGITRMPRAEVYEKIMADFDKAIAALPTEWGASDYGRVTKGAAMAMKARAALYYGNWDTAATEAKNVMDLGLYELYDKDNTGKYAELFWEKADGCDEFILVTQFNYPDKTHYLMGWECFPTKGWGGMNPTQSLVDAFEDSEGAPISKSKIYDPTDPFKNRDPRLEVDILHDGEEMYGVTIKVAPLASSGSTGINQHNDATETGYYGQKWLDPSLDPLSDGWNMGKDWVHIRYAEVLLTYAEAKNELQGLDPEAFDAVNQVRRRVGMPELQNTDPSKPTYCATQDDLRQRIRNEWRVEFCLEGGKRMWDIRRWGIAKDVLNAPFEGLKYKIVDNPNDPDKKVDGGKMCILYQGDPIILSGSRYSDNNYLFPVPQSEIDLNPALTQNPGY,glycan array binding signal (z-score),[1],-0.76
same,glycan array binding signal (z-score),[2],-0.816
same,glycan array binding signal (z-score),[3],-0.286
same,glycan array binding signal (z-score),[4],-0.11
same,glycan array binding signal (z-score),[5],-0.464
same,glycan array binding signal (z-score),[6],-0.683
same,glycan array binding signal (z-score),[7],0.04
same,glycan array binding signal (z-score),[8],0.652
same,glycan array binding signal (z-score),[9],1.15
same,glycan array binding signal (z-score),[10],0.264
same,glycan array binding signal (z-score),[11],1.16
same,glycan array binding signal (z-score),[12],-0.621
same,glycan array binding signal (z-score),[13],-0.272
same,glycan array binding signal (z-score),[14],-0.675
same,glycan array binding signal (z-score),[15],-0.298
same,glycan array binding signal (z-score),[16],0.173
same,glycan array binding signal (z-score),[17],1.06
same,glycan array binding signal (z-score),[18],0.375
same,glycan array binding signal (z-score),[19],-0.765
same,glycan array binding signal (z-score),[20],-0.321
same,glycan array binding signal (z-score),[21],-0.329
same,glycan array binding signal (z-score),[22],-0.703
same,glycan array binding signal (z-score),[23],-0.494
same,glycan array binding signal (z-score),[24],-0.103
same,glycan array binding signal (z-score),[25],0.62
same,glycan array binding signal (z-score),[26],-0.381
same,glycan array binding signal (z-score),[27],-0.724
same,glycan array binding signal (z-score),[28],0.958
same,glycan array binding signal (z-score),[29],-0.886
same,glycan array binding signal (z-score),[30],-0.34
same,glycan array binding signal (z-score),[31],0.38
same,glycan array binding signal (z-score),[32],-0.59
same,glycan array binding signal (z-score),[33],-1.01
same,glycan array binding signal (z-score),[34],-0.838
same,glycan array binding signal (z-score),[35],-0.061
same,glycan array binding signal (z-score),[36],-0.239
same,glycan array binding signal (z-score),[37],-0.754
same,glycan array binding signal (z-score),[38],-0.995
